Experimental data from the supplement of paper PMC10849652.
This is one part of the list.

Sequences of proteins named here, by UniProt entry; tags and fusion partners are left off. A change or cut given only in a name is not applied to a line headed by its entry.
UniProt Q9BXK1: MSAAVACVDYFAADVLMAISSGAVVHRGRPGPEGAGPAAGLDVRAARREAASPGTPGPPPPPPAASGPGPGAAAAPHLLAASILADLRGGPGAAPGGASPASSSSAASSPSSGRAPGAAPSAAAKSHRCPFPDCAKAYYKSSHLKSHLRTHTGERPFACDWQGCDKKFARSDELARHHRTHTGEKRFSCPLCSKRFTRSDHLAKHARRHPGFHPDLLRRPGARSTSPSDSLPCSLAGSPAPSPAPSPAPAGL
UniProt O14686, whole entry, looked up: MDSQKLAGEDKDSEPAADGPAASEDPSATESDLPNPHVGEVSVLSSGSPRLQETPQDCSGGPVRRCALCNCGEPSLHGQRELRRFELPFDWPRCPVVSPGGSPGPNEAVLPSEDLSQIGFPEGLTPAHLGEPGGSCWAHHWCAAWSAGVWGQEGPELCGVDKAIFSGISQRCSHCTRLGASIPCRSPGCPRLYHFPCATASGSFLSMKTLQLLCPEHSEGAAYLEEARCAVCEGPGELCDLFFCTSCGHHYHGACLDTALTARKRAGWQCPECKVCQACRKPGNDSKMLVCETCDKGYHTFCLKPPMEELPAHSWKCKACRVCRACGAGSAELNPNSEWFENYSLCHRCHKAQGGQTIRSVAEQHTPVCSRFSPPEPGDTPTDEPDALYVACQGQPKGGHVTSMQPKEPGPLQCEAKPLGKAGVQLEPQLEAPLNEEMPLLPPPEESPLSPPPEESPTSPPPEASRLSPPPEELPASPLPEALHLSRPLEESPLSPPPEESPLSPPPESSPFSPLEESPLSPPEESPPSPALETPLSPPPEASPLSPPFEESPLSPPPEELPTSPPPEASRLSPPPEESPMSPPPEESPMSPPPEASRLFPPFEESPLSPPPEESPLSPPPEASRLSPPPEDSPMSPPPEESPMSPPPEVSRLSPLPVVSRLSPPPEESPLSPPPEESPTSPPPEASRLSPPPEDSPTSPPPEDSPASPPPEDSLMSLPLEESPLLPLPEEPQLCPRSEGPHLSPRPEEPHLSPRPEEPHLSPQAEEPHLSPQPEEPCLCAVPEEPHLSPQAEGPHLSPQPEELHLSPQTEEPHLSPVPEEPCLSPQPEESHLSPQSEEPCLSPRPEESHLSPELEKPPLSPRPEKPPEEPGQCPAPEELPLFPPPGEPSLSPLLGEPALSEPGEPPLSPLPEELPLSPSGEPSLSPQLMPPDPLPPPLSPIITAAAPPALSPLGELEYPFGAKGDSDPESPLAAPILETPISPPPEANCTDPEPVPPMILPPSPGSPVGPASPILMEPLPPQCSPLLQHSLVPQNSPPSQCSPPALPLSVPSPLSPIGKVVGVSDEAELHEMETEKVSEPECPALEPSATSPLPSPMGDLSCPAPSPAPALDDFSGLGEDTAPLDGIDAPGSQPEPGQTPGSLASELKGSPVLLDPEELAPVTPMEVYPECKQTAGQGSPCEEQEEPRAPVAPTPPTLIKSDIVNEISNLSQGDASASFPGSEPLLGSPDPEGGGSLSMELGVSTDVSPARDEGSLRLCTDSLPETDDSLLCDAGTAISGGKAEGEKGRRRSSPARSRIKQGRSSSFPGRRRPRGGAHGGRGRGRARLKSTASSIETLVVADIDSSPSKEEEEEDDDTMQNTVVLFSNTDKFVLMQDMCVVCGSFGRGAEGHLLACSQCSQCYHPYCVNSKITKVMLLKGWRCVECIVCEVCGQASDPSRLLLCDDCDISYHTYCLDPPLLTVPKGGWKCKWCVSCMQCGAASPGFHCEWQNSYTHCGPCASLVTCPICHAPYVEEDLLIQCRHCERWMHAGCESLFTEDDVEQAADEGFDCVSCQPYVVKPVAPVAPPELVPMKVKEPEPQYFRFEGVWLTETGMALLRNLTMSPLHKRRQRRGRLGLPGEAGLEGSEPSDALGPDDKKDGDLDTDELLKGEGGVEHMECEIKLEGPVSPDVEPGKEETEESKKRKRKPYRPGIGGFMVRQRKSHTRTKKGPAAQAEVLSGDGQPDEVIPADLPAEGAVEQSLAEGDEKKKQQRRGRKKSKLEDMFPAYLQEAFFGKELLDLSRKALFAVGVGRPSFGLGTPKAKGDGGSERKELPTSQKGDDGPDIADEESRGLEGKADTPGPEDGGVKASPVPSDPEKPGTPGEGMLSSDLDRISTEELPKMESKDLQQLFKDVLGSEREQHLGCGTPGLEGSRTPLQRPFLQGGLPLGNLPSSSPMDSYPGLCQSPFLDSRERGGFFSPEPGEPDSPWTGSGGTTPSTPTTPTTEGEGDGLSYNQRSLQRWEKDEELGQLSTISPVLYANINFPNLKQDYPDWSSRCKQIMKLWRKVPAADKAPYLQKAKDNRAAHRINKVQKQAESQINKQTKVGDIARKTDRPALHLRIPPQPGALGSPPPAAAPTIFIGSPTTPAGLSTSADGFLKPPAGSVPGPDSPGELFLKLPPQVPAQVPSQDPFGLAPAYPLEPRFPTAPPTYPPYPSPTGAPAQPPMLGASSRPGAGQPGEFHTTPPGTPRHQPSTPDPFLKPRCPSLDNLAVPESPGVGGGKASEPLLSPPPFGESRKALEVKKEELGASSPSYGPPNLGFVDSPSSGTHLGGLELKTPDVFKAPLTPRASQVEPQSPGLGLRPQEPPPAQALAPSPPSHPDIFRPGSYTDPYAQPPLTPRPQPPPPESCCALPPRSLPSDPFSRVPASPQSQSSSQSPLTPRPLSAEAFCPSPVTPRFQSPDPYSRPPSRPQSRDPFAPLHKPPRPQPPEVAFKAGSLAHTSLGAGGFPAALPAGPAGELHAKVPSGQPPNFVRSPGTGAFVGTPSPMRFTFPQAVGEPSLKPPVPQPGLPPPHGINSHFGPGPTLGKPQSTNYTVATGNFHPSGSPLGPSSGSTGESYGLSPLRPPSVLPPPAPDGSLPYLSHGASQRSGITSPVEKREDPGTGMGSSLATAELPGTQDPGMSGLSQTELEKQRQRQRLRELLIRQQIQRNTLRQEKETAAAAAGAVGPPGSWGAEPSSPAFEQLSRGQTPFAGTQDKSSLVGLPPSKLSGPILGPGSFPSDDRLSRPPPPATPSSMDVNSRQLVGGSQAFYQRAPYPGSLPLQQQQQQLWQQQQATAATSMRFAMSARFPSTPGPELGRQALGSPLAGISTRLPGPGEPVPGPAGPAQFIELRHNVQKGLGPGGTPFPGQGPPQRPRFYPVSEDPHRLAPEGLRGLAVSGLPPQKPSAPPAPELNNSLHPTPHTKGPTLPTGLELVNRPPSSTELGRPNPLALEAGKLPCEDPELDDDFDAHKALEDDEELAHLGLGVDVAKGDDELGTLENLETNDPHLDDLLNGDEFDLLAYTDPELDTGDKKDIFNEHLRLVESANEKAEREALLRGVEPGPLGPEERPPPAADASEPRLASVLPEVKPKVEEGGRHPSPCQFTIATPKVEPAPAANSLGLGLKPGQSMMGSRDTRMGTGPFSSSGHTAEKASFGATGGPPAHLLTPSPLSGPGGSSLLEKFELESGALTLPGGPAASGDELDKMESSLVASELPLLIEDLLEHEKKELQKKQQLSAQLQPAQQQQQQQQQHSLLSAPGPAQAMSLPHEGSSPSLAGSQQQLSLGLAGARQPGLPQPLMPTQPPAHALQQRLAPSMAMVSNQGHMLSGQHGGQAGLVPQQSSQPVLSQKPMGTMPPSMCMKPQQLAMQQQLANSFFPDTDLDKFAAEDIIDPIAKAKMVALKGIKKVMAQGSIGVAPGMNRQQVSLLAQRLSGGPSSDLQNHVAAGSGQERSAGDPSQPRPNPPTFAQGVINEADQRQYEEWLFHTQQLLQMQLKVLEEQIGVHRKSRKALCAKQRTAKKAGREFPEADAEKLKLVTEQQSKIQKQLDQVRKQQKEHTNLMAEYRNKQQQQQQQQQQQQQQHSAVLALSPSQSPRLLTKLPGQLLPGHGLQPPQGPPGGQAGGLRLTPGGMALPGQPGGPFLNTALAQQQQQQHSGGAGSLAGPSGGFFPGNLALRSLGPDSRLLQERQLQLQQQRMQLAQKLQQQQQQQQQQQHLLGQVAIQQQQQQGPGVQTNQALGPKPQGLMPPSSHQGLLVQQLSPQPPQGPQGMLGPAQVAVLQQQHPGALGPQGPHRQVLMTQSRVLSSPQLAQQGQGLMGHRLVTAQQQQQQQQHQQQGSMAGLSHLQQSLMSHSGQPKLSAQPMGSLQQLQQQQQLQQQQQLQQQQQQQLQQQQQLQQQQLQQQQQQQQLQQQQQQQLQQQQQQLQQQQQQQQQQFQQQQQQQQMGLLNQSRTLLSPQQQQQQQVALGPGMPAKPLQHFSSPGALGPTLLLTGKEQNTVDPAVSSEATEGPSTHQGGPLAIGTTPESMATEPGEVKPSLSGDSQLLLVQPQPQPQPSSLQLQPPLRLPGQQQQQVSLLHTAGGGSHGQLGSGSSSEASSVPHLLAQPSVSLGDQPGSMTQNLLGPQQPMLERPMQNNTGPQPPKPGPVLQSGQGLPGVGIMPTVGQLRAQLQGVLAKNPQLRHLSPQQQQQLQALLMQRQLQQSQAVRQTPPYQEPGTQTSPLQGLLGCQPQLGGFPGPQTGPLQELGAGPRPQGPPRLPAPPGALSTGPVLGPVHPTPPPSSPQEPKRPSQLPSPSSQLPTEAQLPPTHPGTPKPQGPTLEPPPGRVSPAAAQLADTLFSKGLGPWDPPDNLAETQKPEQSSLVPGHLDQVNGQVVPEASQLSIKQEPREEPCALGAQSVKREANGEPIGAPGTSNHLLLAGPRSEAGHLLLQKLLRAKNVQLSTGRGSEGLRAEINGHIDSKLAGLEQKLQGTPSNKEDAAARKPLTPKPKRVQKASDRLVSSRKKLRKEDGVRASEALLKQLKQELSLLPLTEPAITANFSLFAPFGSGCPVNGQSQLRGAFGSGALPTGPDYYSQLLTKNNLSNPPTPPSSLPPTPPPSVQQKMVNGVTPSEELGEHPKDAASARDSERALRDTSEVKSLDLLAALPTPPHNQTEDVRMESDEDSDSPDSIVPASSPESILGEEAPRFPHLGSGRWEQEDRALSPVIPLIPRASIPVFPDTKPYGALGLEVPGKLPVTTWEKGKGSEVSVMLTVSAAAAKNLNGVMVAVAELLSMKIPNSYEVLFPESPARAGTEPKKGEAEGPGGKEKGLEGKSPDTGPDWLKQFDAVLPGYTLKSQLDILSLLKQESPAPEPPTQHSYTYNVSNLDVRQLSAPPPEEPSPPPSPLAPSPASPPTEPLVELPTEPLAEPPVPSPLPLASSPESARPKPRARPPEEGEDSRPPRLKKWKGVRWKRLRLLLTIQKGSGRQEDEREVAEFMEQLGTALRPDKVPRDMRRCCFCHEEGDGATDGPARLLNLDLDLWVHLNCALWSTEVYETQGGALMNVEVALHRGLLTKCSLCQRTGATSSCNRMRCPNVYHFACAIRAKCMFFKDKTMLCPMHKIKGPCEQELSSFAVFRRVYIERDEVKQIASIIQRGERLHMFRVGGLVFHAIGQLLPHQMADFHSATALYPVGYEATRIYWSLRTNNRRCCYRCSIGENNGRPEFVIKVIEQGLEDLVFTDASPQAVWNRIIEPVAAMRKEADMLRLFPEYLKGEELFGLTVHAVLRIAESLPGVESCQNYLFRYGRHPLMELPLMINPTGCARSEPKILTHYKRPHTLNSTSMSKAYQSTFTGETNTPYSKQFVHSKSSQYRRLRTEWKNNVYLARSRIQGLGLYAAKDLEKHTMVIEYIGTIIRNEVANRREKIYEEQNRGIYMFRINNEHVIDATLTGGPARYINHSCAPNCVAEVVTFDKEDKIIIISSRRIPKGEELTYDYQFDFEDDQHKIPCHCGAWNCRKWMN
UniProt P50053: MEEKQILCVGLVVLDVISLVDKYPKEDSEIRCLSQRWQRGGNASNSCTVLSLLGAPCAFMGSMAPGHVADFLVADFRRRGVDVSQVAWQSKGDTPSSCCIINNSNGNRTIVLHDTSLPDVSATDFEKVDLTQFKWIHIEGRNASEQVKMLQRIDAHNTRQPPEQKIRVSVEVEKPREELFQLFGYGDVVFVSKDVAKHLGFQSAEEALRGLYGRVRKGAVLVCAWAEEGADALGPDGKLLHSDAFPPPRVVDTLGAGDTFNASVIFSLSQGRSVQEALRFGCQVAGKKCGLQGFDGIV
UniProt Q9H910: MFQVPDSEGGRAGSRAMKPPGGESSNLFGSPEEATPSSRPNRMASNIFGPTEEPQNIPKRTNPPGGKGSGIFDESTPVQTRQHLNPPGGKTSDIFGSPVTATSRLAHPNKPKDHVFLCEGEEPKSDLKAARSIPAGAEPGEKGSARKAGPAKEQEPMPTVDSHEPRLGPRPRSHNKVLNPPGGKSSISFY
UniProt P0C870: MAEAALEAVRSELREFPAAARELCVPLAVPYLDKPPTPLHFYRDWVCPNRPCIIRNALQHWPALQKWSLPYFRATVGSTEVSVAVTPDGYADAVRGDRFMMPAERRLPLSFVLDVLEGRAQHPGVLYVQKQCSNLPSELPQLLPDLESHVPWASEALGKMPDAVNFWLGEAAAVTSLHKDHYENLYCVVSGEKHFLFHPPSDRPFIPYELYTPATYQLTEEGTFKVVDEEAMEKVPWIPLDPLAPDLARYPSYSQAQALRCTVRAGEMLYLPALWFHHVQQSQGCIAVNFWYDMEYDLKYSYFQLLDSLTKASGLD

The targets below were run with c1cn2cc(-c3ccc4cn[nH]c4c3)nc(Nc3ccc(N4CCOCC4)cc3)c2n1 [entospletinib] (assay: log2 fold change, soluble protein after heating vs DMSO (PISA); higher = thermal stabilisation; K562 cells, 10 uM, 30 min; active = over 0.2 and 3.5 SD of the protein, either way, in both replicates (recomputed)).
In short: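 Values are thermal stability changes relative to control samples and are taken from duplicates. They are stated as log2 fold changes. Before quantification by TMTpro 16plex LC-MS/MS with equalised channel sums, K562 cells at 2×10^6 cells/mL were treated with 10 μM compound for 30 min, heated in aliquots for 3 min across 48°C-58°C, pooled, extracted in PBS with 0.5% NP-40 at 4°C, and centrifuged at 21,000xg for 90 min to give the soluble supernatant.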

log2 fold change, inactive:
KCTD9 (UniProt Q7L273) 0.033
KNSTRN (UniProt Q9Y448) 0.073
KIF23 (UniProt Q02241) -0.041
KLF16 (UniProt Q9BXK1) 0.001
KCNK1 (UniProt O00180) -0.138
KMT2D isoform 3 (UniProt O14686) 0
KIAA1522 isoform 2 (UniProt Q9P206) 0.179
KHSRP (UniProt Q92945) -0.002
KIAA1143 (UniProt Q96AT1) 0.056
JPT1 (UniProt Q9UK76) 0.01
KIAA1109 (UniProt Q2LD37) -0.095
KPNA2 (UniProt P52292) 0.141
KPTN (UniProt Q9Y664) 0.088
KDM3A (UniProt Q9Y4C1) 0.061
KNG1 (UniProt P01042) 0.19
JUN (UniProt P05412) 0.071
KHK isoform 2 (UniProt P50053) -0.039
KIAA0100 (UniProt Q14667) 0.027
ITSN2 (UniProt Q9NZM3) 0.003
JPT2 isoform 2 (UniProt Q9H910) 0.091
JMJD7 (UniProt P0C870) 0.117
KIF2A isoform 4 (UniProt O00139) 0.034
IVNS1ABP (UniProt Q9Y6Y0) 0.108
KLK10 (UniProt O43240) -0.117
JCHAIN (UniProt P01591) -0.314
JTB (UniProt O76095) -0.037
KARS1 (UniProt Q15046) 0.119

Reprinted from the entries so far (7 entries):
log2 fold change, inactive:
JUN (UniProt P05412) 0.071
KHK isoform 2 (UniProt P50053) -0.039
KIAA0100 (UniProt Q14667) 0.027
ITSN2 (UniProt Q9NZM3) 0.003
JPT2 isoform 2 (UniProt Q9H910) 0.091
JMJD7 (UniProt P0C870) 0.117
KIF2A isoform 4 (UniProt O00139) 0.034
